Measurements taken from patent US6610715B1, “Cathecol hydrazone derivatives, process for preparing the same and pharmaceutical composition containing the same” (Cheil Jedang Corporation, priority 2001, dated 2003).
At least one structure is not confirmed: it was looked up by name or label, or the drawing left a doubt.

Test system: Phosphodiesterase IV partially purified from human U937 cells
Assay: Inhibition of Phosphodiesterase IV Activity ([3H]cAMP hydrolysis, scintillation counting)
Assay type: biochemical
Settings: 1.0 uM cAMP, 30° C., 20 minutes
Method: Compounds prepared by Examples 1 through 16 and Rolipram as control were tested on the inhibition of phosphodiesterase IV.
Phosphodiesterase IV partially purified from human U937 cells, test compound and 1.0 uM cAMP including 0.01 uM[^3H]cAMP were incubated at 30° C. for 20 minutes. The PDE reaction to convert cAMP into AMP was […] by boiling the reaction solution for 2 minutes. AMP was converted into adenosine by adding snake venom nucleotidase and incubating the reaction solution at 30° C. for 10 minutes. While unhydrolyzed cAMPs were bonded to AG1-X2 resin, the [^3H]adenosine in the aqueous solution was quantified by scintillation counting. The results are shown in Table I below, in which the values indicate inhibition (%) of the PDE IV by each test compound.

## COc1ccc(/C=N/Nc2ccnc3cc(Cl)ccc23)cc1OC1CCCC1 [EXAMPLE 5, (E)-3-cyclopentyloxy-4-methoxybenzaldehyde 7-chloroquinolone-4-ylhydrazone]
Test compound concentration 2 uM
  Inhibition (%) of the PDE IV: 37.9%
Test compound concentration 20 uM
  Inhibition (%) of the PDE IV: 64.9%
